These are yes or no findings as the source states them, for the method shown. In cells and extracts the contact can be indirect. A result given as binding can be weak or reduced; the word gives no strength.

The experiment has as its target T1, ATF4 bZIP TAP construct (mouse) (UniProt Q06507).
T1 sequence: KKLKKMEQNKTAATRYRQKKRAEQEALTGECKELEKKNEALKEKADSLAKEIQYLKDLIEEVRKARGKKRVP
The experiment is described as follows: co-IP; one-step pulldown with anti-FLAG magnetic beads from pooled extracts of mouse TA muscles (12 mice) expressing the ATF4 bZIP TAP construct or the empty TAP construct, SDS-PAGE and immunoblot of endogenous proteins. Background: A western blot detects proteins with antibodies after separation by electrophoresis.
Turning to “C/EBPα isoform p42 (from UniProt P53566-1)”, the binding result was “binds”.
For the substance “C/EBPβ isoform LAP (liver-activating protein)”, the binding entry is reported as “binds”.
The same measure for “C/EBPβ isoform LIP (liver-inhibitory protein)”: “binds”.
With C/EBPα isoform p30, the binding entry is “binds”.

These data come from article PMC7049960.
